According to PubChem BioAssay AID2685 (National Center for Advancing Translational Sciences (NCATS), 2010):
The other results are listed elsewhere or left out. These are further read-outs of the screen, such as a control signal, another cell line or another target. No call is given for them. The list favours compounds with an active or inconclusive main result. Potencies come from curve fits of mixed quality, noted in brackets.

Assay: qHTS Assay for Lipid Storage Modulators in Drosophila S3 Cells;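 on cell number change: cells counted by Cell Tracker Red CMTPX staining in the red channel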
Conditions: BODIPY lipid droplet fluorescence, 18-24 h; for cell number change: measured here: cell count max response, cells fed with added oleic acid
In short: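 Laser-scanning cytometry quantifies lipid droplet accumulation (500–530 nm total intensity; droplet/cell object ratio) in oleic acid-fed (400 uM added) Drosophila S3 cells treated with a concentration series. 20 uM Triacsin C defined 100% inhibition.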

[1] = measured here: cell number channel AC50, cells fed with added oleic acid
[2] = measured here: lipid fluorescence (Fed channel) AC50, cells fed with added oleic acid

Row | SMILES | cell number change | AC50 [1] | AC50 [2]
1 | COc1cc(C(=O)Nc2ccc(Oc3ncnc4sc(-c5ccccc5)cc34)cc2)cc(OC)c1OC | 84.1% | 4.61 µM [rising, partial curve] | 13 µM [rising, partial curve]
2 | CC1CCCC(C)N1/N=C/c1ccccc1Br (stereo not drawn) | -33.1% | 29.1 µM [falling, single point] | 29.1 µM [falling, single point]
3 | C/C(=N\NC(=O)CCCOc1ccc(Cl)cc1C)c1ccc(C)o1 | 20.3% | 2.91 µM [rising, partial curve] | –
4 | CC1CCN(C(=O)C(C)OC(=O)CSc2ccc([N+](=O)[O-])cc2)CC1 (stereo not drawn) | -3.63% | – | 6.51 µM [falling, single point]
5 | Cc1nc2ccccc2c(=O)n1/N=C/C=C/c1ccccc1 | 17% | 0.82 µM [rising, full curve, poor fit] | –
6 | Cc1sc(/N=C/c2c(O)ccc3ccccc23)c(C#N)c1C | -33.1% | 29.1 µM [falling, single point] | 29.1 µM [falling, single point]
7 | CCOc1cccc(NC(=O)CSc2sc3c(O)cc(=O)[nH]c3c2C#N)c1 | 19.7% | – | 29.1 µM [rising, single point]
8 | CCOC(=O)C1=C(CC)Nc2ccccc2N=C1NC(=O)Cn1cnc2ccccc2c1=O | – | 1.64 µM [rising, partial curve] | –
9 | CCOC(=O)c1c(NC(=O)CSc2nnc(-c3ccco3)o2)sc(C)c1C | -14.3% | – | 20.6 µM [falling, partial curve, poor fit]
10 | COc1ccccc1NC(=O)C(=O)N/N=C(\C)CC(=O)Nc1ccc(OCc2ccccc2)cc1 | -0.368% | – | 3.26 µM [falling, partial curve]
11 | COc1ccc(-c2[nH]ncc2Oc2ccccc2OC)c(O)c1 | -40.1% | 29.1 µM [falling, single point] | –
12 | Cc1n[nH]c(=O)c2c(NC(=O)CSc3nncs3)oc(C)c12 | 32.8% | 32.6 µM [rising, single point] | –
13 | COc1ccc(OC)c(NC(=O)c2cccnc2Sc2ccccc2)c1 | 8.68% | – | 20.6 µM [rising, single point]
14 | COc1ccc(CCNC(=O)c2cc3c(cc2Cl)N2CCCCCC2=NS3(=O)=O)cc1 | 100% | 29.1 µM [rising, single point] | –
15 | CCOc1ccccc1CN1CCN(Cc2csc(C(C)=O)c2)CC1CCO (stereo not drawn) | -23.8% | – | –
16 | CC(C)(C)C1=CC=C(C(C)(C)C)C(=O)C1=O | -57.2% | 16.4 µM [falling, partial curve] | 20.6 µM [falling, partial curve, poor fit]
17 | COc1ccc2[nH]c(=O)cc(C(=O)O)c2c1 | 21.8% | – | 7.31 µM [rising, partial curve, poor fit]
18 | CCS(=O)(=O)c1nc(S(=O)(=O)c2ccc(C)cc2)c(N2CC(C)CC(C)C2)s1 (stereo not drawn) | -13.5% | – | 32.6 µM [falling, single point]

Just AC50 [2] and AC50 [1], for 2 of the compounds above:
Row	SMILES	AC50 [2]	AC50 [1]
8	CCOC(=O)C1=C(CC)Nc2ccccc2N=C1NC(=O)Cn1cnc2ccccc2c1=O	–	1.64 µM [rising, partial curve]
9	CCOC(=O)c1c(NC(=O)CSc2nnc(-c3ccco3)o2)sc(C)c1C	20.6 µM [falling, partial curve, poor fit]	–

Carrying on.

Row | SMILES | cell number change | AC50 [1] | AC50 [2]
19 | COc1ccccc1-n1c(SCC(=O)O)nnc1-c1ccc(S(=O)(=O)N2CCCCC2)cc1 | 4.72% | – | 29.1 µM [falling, single point]
20 | C/C=C/c1ccc(OCC(=O)OCc2csc(CC(=O)Nc3ccccc3C)n2)c(OC)c1 | -4.97% | – | –
21 | CCN(CC(=O)Nc1cc(Cl)ccc1C)C(=O)CN1C(=O)NC(CC)(c2ccccc2)C1=O (stereo not drawn) | 25% | 0.651 µM [falling, partial curve, poor fit] | –
22 | O=C(CCCn1c(=O)c2ccccc2n(CC(=O)NCc2ccco2)c1=O)NCc1ccco1 | 4.06% | – | 4.11 µM [rising, single point]
23 | Cc1ccc(S(=O)(=O)N2[C@@H](c3ccccc3F)C(C(=O)O)=CC[C@H]2c2cccs2)cc1 | 0.765% | – | 29.1 µM [rising, single point]
24 | COc1cc(C2CC(=O)N3CN(c4ccccc4C)CSC3=C2C#N)cc(OC)c1OC (stereo not drawn) | -20.6% | – | 9.2 µM [rising, partial curve, poor fit]
25 | CCOc1ccc(S(=O)(=O)N2CCOCC2)c2ccccc12 | -19.7% | – | 0.00461 µM [falling, full curve, poor fit]
26 | CS(=O)(=O)Nc1nnc(CCc2ccccc2)s1 | 18.5% | – | –
27 | O=C1C(Nc2cccc(O)c2)=C(N2CCCCC2)C(=O)c2ccccc21 | -61.9% | 20.6 µM [falling, single point] | 20.6 µM [falling, single point]
28 | Cc1ccc(NC(=O)CN(c2ccc(Cl)cc2)S(=O)(=O)c2cc([N+](=O)[O-])ccc2Cl)c(C)c1 | 114% | 23.1 µM [rising, partial curve] | 25.9 µM [rising, partial curve]
29 | O=C(COC(=O)c1nc(Cl)ccc1Cl)NC1CCS(=O)(=O)C1 (stereo not drawn) | -2.94% | – | 6.51 µM [falling, partial curve, poor fit]
30 | Cc1c(N=CC=Nc2c(C)n(C)n(-c3ccccc3)c2=O)c(=O)n(-c2ccccc2)n1C | -5.14% | – | –
31 | Cn1c2c(c(=O)c3ccccc31)CCC(C)(C)O2 | -25.6% | – | 29.1 µM [falling, single point]
32 | Cc1ccc(CN(C)C(=O)CN2C(=O)NC3(CCCc4ccccc43)C2=O)c(C)c1 (stereo not drawn) | -1.41% | – | –
33 | COc1cc(NC(=S)N2CCc3ccccc3C2)cc(OC)c1 | – | 0.82 µM [rising, single point] | 0.651 µM [rising, partial curve, poor fit]
34 | O=C(COC(=O)/C=C/c1ccc(F)cc1)Nc1ccc2[nH]c(=O)[nH]c2c1 | 27.1% | – | 6.51 µM [falling, single point]
35 | O=C(c1ccco1)n1nc(NCc2ccccc2)nc1NCc1ccccc1 | -30.7% | 14.6 µM [falling, single point] | 0.731 µM [rising, full curve, poor fit]
36 | CC(C)Cn1c2ccccc2c2cc(C(=O)O)ccc21 | 1.87% | – | 6.51 µM [falling, single point]
